The text below walks through data of the supplement of paper PMC12542422.

Where a name gives a salt, the structure may show the parent alone. ± gives the standard deviation of the averaged measurements. The list shows a part of the results. Values are raw readings; no control value is given beside them.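 Across three biological replicates, HeLa cells were imaged for ribosome assembly using ENP1 staining (export block present or absent) or inducible tagged ribosomal protein reporters. Machine learning classified each cell's signal localization relative to DMSO controls. Hits exceeded the DMSO false-positive mean by five standard deviations and were then visually confirmed.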

For the assay, the system named is HeLa K (ENP1 immunofluorescence, no LMB). As to the kind of experiment: fraction of cells with nucleolar or nucleolar/nucleoplasmic ENP1 signal (MainHitrate); higher = more cells with nucleolar/nuclear readout signal (for ENP1 -LMB: less RNAPI inhibition; for +LMB ENP1 and RP reporters: stronger nuclear/nucleolar retention, i.e. ribosome biogenesis defect). Particulars: concentration: 1 µM; treatment time: 6 h; ENP1 -LMB; leptomycin B: none.
With `CCCCCCCCCCCCCCCCCCCCCCO` [Docosanol (Abreva)], the fraction worked out at 0.9985 ± 0.0026.
The same measure for `Clc1ccc2nsnc2c1NC1=NCCN1` [Tizanidine HCl]: 0.9981 ± 0.0033; for `COc1cc(C(=O)NS(=O)(=O)c2ccccc2C)ccc1Cc1cn(C)c2ccc(NC(=O)OC3CCCC3)cc12` [Zafirlukast (Accolate)]: 0.9984 ± 0.0027.
In turn, `Cc1nc(-c2ccc(OCC(C)C)c(C#N)c2)sc1C(=O)O` [Febuxostat (Uloric)] displayed a fraction of 0.9987 ± 0.0023.
The same measure for `COc1nc(N)nc2c1ncn2[C@@H]1O[C@H](CO)[C@@H](O)[C@@H]1O` [Nelarabine (Arranon)]: 0.9977 ± 0.0039; for `S=c1[nH]cnc2nc[nH]c12` [Mercaptopurine]: 0.9982 ± 0.0031; for `Cc1ccc(-c2cc(C(F)(F)F)nn2-c2ccc(S(N)(=O)=O)cc2)cc1` [Celecoxib]: 0.9986 ± 0.0024.
The value for `O=C(Nc1ccc([N+](=O)[O-])cc1Cl)c1cc(Cl)ccc1O` [Niclosamide (Niclocide)] was 0.968 ± 0.056.
For the compound `CCCCCCCCCC(=O)N[C@H]1[C@H](Oc2c3cc4cc2Oc2ccc(cc2Cl)[C@@H](O[C@@H]2O[C@H](CO)[C@@H](O)[C@H](O)[C@H]2NC(C)=O)[C@@H]2NC(=O)[C@H](NC(=O)[C@@H]4NC(=O)[C@H]4NC(=O)[C@@H](Cc5ccc(c(Cl)c5)O3)NC(=O)[C@H](N)c3ccc(O)c(c3)Oc3cc(O)cc4c3)c3ccc(O)c(c3)-c3c(OC4O[C@H](CO)[C@@H](O)[C@H](O)[C@@H]4O)cc(O)cc3[C@@H](C(=O)O)NC2=O)O[C@H](CO)[C@@H](O)[C@@H]1O` (some centres undefined) [Teicoplanin], the fraction was 0.9987 ± 0.0023.
The value for `O=C(Nc1c(Cl)cncc1Cl)c1ccc(OC(F)F)c(OCC2CC2)c1` [Roflumilast (Daxas)] was 0.988 ± 0.02.
The value for `C[C@@H](O)[C@H]1C(=O)N2C(C(=O)O)=C(S[C@@H]3CN[C@H](CNS(N)(=O)=O)C3)[C@H](C)[C@H]12` [Doripenem Hydrate] was 0.9984 ± 0.0027.
The same measure for `Cc1c(OCC(F)(F)F)ccnc1C[S+]([O-])c1nc2ccccc2[nH]1` (centres undefined) [Lansoprazole]: 0.9983 ± 0.0029; for `COc1ccc2cccc(CCNC(C)=O)c2c1` [Agomelatine]: 0.9984 ± 0.0028; for `O=C(O)c1ccc(NC(=O)[C@H](Cc2ccc(O)cc2)NC(=O)c2ccccc2)cc1` [Bentiromide]: 0.9991 ± 0.0015.
On to `CS(=O)(=O)Nc1ccc([N+](=O)[O-])cc1Oc1ccccc1` [Nimesulide], for which the fraction was 0.9959 ± 0.0072.
The same measure for `OC[C@@H](O)[C@@H](O)[C@H](O)[C@@H](O)CO` [Sorbitol (Glucitol)]: 0.986 ± 0.024; for `CCn1cc(C(=O)O)c(=O)c2cc(F)c(N3CCNCC3)cc21` [Norfloxacin (Norxacin)]: 0.9984 ± 0.0028; for `C=C1/C(=C\C=C2/CCC[C@]3(C)[C@@H]([C@H](C)CCCC(C)(C)O)CC[C@@H]23)C[C@@H](O)C[C@@H]1O` [Calcitriol (Rocaltrol)]: 0.9987 ± 0.0022.
The same measure for `N=C(N)Nc1ccc(C(=O)Oc2ccc3cc(C(=N)N)ccc3c2)cc1` [Nafamostat mesylate]: 0.9975 ± 0.0043.
The compound `COC(=O)C1=C(C)NC(C)=C(C(=O)OCC(C)C)C1c1ccccc1[N+](=O)[O-]` (centres undefined) [Nisoldipine (Sular)] yielded a fraction of 0.9983 ± 0.0029.
The same measure for `CCOc1ccccc1OC(c1ccccc1)C1CNCCO1` (centres undefined) [Reboxetine mesylate]: 0.958 ± 0.072; for `COc1cc(C(C)=O)ccc1OCCCN1CCC(c2noc3cc(F)ccc23)CC1` [Iloperidone (Fanapt)]: 0.9971 ± 0.0051; for `CCC(C)(C)c1ccc(CC(C)CN2C[C@@H](C)O[C@@H](C)C2)cc1` (some centres undefined) [Amorolfine Hydrochloride]: 0.9981 ± 0.0033.
With `Clc1ccc(CSC(Cn2ccnc2)c2ccc(Cl)cc2Cl)cc1` (centres undefined) [Sulconazole Nitrate], the fraction came out at 0.992 ± 0.015.
The same measure for `CC(=O)OCC(=O)NCCCOc1cccc(CN2CCCCC2)c1` [Roxatidine acetate HCl]: 0.993 ± 0.013; for `Nc1nc(=O)c2c([nH]1)NC[C@H](CNc1ccc(C(=O)N[C@@H](CCC(=O)O)C(=O)O)cc1)N2C=O` [Calcium levofolinate (Calcium Folinate)]: 0.996 ± 0.0069.
The same measure for `Cn1nnc2c(C(N)=O)ncn2c1=O` [Methazolastone]: 0.9972 ± 0.0049; for `CCCc1nn(C)c2c(=O)[nH]c(-c3cc(S(=O)(=O)N4CCN(C)CC4)ccc3OCC)nc12` [Sildenafil citrate]: 0.9989 ± 0.002; for `Cc1c(N(C)C)c(=O)n(-c2ccccc2)n1C` [Amidopyrine]: 0.986 ± 0.024.
The value for `C[C@]12C=CC(=O)C=C1CC[C@H]1[C@@H]3C[C@@H](O)[C@](O)(C(=O)CO)[C@@]3(C)C[C@H](O)[C@@]12F` [Triamcinolone (Aristocort)] was 0.9961 ± 0.0067; that for `CCCCCCCN(CC)CCCC(O)c1ccc(NS(C)(=O)=O)cc1` (centres undefined) [Ibutilide fumarate] was 0.993 ± 0.013; that for `CN(C)CCC(c1ccc(Cl)cc1)c1ccccn1` (centres undefined) [Chlorpheniramine Maleate] was 0.996 ± 0.0069.
In the case of `CNCCC(Oc1ccc(C(F)(F)F)cc1)c1ccccc1` (centres undefined) [Fluoxetine  HCl], the fraction is 0.9966 ± 0.0059.
`COc1cc(/C=C/C(=O)N2CCN(CC(=O)N3CCCC3)CC2)cc(OC)c1OC` [Cinepazide maleate] yielded a fraction of 0.992 ± 0.013.
The value for `CCOc1cc(N)c(Cl)cc1C(=O)NCC1CN(Cc2ccc(F)cc2)CCO1` (centres undefined) [Mosapride citrate] was 0.9989 ± 0.002; that for `CC1(C)S[C@@H]2[C@H](NC(=O)[C@H](NC(=O)N3CCNC3=O)c3ccccc3)C(=O)N2[C@H]1C(=O)O` [Azlocillin sodium salt] was 0.983 ± 0.029.
The value for `CS(=O)(=O)c1ccc(C2=C(c3ccccc3)C(=O)OC2)cc1` [Rofecoxib (Vioxx)] was 0.983 ± 0.029; that for `COc1c(N2C[C@@H]3CCCN[C@@H]3C2)c(F)cc2c(=O)c(C(=O)O)cn(C3CC3)c12` [Moxifloxacin hydrochloride] was 0.9969 ± 0.0053; that for `COc1cc2c(cc1O)CC[C@@H]1[C@@H]2CC[C@]2(C)[C@@H](O)CC[C@@H]12` [2-Methoxyestradiol] was 0.993 ± 0.011.
